Measured values published in PubChem BioAssay AID1259415 (National Center for Advancing Translational Sciences (NCATS), 2018).
In all, about 410,000 compounds went through this assay and about 18,000 (4.4%) were called active. Inconclusive means that the source gave no clear call. Such entries were picked first, then a sample of the others. Rule as the data show it: active = activity change below about -60%; inconclusive = no clear call, values can overlap the other calls; inactive = above about -39%.

experiment: qHTS Assay for inhibitors of the human cytomegalovirus (HCMV); details: HFF cells, HCMV-luciferase reporter, 72 h; at 57.5 µM; hits give low values
Summary of the method: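 HFF cells seeded 16 h at 37C, treated with compounds, infected with luciferase-reporter HCMV at MOI 1 PFU/cell; luciferase read at 72 h post infection, normalized to buffer-only and Salinomycin controls.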
% is scaled to controls: 0 for no effect and ±100 for the full control effect.

| Structure (SMILES) | activity change, negative = inhibition |
| --- | --- |
| CCc1c(C)sc(NC(=O)C2CC2)c1C(=O)OC(C)C | inconclusive: -45.6% |
| Cc1c(C)n(Cc2ccc(Cl)cc2)c2ccc(C(=O)NCCCN3CCOCC3)cc12 | inconclusive: -42.5% |
| Cc1ccc(Cn2c(CCNC(=O)c3cccc(C)c3)nc3ccccc32)cc1 | inactive: -4.61% |
| COc1ccc2nc(-c3ccccc3)[nH]c(=O)c2c1 | inactive: 23% |
| Cc1ccc(/C=N/NC(=O)CCCOc2ccc(Cl)cc2Cl)cc1 | inconclusive: -41.5% |
| Cc1ccc(S(=O)(=O)N2CCCCC2)c(C)c1NS(C)(=O)=O | inconclusive: -58.1% |
| CC(C)c1ccc(S(=O)(=O)N2CCC(C(=O)NCC3(N(C)C)CCCCC3)CC2)cc1 | inconclusive: -59.1% |
| CCOC(=O)C1(CC2CC2)CCN(Cc2cn(C)c3ccccc23)CC1 | inconclusive: -52.9% |
| CCNC(=S)Nc1ccc(OC(F)(F)F)cc1 | inconclusive: -57.3% |
| COc1ccccc1/C=C/C(=O)Nc1ccc(S(=O)(=O)Nc2cc(C)on2)cc1 | inconclusive: -48.3% |
| Cc1cccc(C)c1NC(=S)N(CCN(C)C)C(C)c1ccccn1 (centres undefined) | inconclusive: -47.3% |
| CN(C(=O)c1cccc(NC(=O)C2CCCN(C(=O)OC(C)(C)C)C2)c1)C1CCCC1 (centres undefined) | inconclusive: -49.8% |
| Cc1cc(CN(C)C(=O)c2cc(COc3ccc(C)c(C)c3)on2)on1 | inactive: 128% |
| COCc1c(C(=O)N/N=C/c2cccc3ccccc23)nnn1-c1nonc1N | inactive: -3.69% |
| Cc1nnc2ccc(N3CCC4(CC3)OCCO4)nn12 | active: -62% |
| CCOC(=O)[C@H]1[C@H]2COc3ccccc3[C@@H]2N2C(=O)c3ccc(C)cc3NC(=O)[C@@]12C | inactive: -19.1% |
| CC1=CC2=NC(=O)/C(=C\c3cc(C)n(-c4ccc(F)cc4)c3C)C(=N)N2O1 | inactive: -36.2% |
| CCCn1c(N)c(N(CCOC)C(=O)CSCC(=O)Nc2ccc(C)cc2)c(=O)[nH]c1=O | inactive: -4.75% |
| COc1ccc(-n2nc3c(N4CCC(C(=O)NCc5ccccc5C)CC4)nnc(C)c3c2C)cc1 | inconclusive: -57.5% |
| Cc1cc(F)ccc1NC(=O)CCS(=O)(=O)c1cc2c(cc1C)NC(=O)CO2 | active: -105% |
| Cc1[nH][nH]c(=O)c1C=NCc1cccs1 | inconclusive: -45.9% |
| Cc1nc(SCC(=O)N(C)Cc2ccco2)c2c(C)c(C)sc2n1 | inconclusive: -44.2% |
| Cc1cc(C)c(S(=O)(=O)Nc2ccc(C(N)=O)cc2)c(C)c1 | active: -84.4% |
| Cc1ccc(OCc2cc(C(=O)NCc3cnn(-c4cccc(F)c4)c3)no2)cn1 | inconclusive: 0% |

An excerpt from above in order of number of heavy atoms, ascending.

| Structure (SMILES) | activity change, negative = inhibition |
| --- | --- |
| CCNC(=S)Nc1ccc(OC(F)(F)F)cc1 | inconclusive: -57.3% |
| Cc1ccc(/C=N/NC(=O)CCCOc2ccc(Cl)cc2Cl)cc1 | inconclusive: -41.5% |
| COCc1c(C(=O)N/N=C/c2cccc3ccccc23)nnn1-c1nonc1N | inactive: -3.69% |
